The text below walks through data of article PMC516168.

Results are given in words; binding and its absence hold for the method and conditions named. In cells and extracts the contact can be indirect. Sequences can lack the tags named with a protein.

This experiment deals with T1, Mc-VHA-H fused to YFP (M. crystallinum) (UniProt Q8GUB3).
T1 sequence: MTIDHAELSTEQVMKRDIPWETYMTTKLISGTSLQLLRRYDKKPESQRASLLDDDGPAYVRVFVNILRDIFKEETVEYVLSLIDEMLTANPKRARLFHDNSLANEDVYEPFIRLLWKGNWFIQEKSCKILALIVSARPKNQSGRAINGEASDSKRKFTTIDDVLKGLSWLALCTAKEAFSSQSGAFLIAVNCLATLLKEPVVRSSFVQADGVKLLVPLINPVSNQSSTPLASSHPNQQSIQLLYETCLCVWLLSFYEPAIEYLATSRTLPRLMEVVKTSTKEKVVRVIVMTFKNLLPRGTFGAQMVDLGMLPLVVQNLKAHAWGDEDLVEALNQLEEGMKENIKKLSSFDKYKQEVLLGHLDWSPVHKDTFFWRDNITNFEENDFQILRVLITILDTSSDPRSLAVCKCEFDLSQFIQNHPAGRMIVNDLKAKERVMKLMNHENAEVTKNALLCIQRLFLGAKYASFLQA
In words: FRET or BRET; in vivo FRET (CFP donor, YFP acceptor) in co-transformed onion epidermis cells; emission spectra before and after photobleaching of the acceptor.

Turning to Mc-VHA-A fused to CFP (M. crystallinum), the binding entry is “no binding”.
